{
  "sequences": {"note": "Amino acid sequences for entries named in this document (tags omitted). A change or cut given only in a name is not applied to a line headed by its entry.", "UniProt Q13485": "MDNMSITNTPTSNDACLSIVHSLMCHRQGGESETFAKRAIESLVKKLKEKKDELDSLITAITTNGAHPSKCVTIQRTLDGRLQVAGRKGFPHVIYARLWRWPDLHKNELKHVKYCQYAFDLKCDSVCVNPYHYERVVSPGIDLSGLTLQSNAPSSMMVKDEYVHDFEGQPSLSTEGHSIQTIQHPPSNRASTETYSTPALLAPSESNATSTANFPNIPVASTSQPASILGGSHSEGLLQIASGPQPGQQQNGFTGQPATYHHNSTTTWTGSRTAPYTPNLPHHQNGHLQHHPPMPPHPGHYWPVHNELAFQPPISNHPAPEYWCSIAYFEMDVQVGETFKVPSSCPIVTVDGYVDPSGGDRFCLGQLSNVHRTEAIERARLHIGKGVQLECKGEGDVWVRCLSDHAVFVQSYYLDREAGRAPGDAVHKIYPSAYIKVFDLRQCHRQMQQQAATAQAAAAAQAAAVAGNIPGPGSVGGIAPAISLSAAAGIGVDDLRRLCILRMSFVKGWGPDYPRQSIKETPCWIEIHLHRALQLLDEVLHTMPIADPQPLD", "UniProt P61244": "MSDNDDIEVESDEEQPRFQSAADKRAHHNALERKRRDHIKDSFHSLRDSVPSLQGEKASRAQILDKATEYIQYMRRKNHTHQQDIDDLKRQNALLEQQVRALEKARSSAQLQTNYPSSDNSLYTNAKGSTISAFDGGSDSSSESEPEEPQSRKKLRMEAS", "UniProt Q15797": "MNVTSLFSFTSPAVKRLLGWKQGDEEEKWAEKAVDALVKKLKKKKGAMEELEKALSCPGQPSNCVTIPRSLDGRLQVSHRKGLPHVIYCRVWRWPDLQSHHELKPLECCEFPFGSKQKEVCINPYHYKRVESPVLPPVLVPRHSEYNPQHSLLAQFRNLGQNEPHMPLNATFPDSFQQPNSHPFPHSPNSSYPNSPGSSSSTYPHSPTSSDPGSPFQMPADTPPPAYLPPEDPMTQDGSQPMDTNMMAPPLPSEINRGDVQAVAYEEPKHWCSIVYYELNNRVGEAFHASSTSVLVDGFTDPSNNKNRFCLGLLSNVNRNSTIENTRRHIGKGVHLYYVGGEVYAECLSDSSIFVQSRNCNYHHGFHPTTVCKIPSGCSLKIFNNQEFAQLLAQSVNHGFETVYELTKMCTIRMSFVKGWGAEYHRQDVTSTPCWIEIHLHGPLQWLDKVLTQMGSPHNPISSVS", "UniProt P84022": "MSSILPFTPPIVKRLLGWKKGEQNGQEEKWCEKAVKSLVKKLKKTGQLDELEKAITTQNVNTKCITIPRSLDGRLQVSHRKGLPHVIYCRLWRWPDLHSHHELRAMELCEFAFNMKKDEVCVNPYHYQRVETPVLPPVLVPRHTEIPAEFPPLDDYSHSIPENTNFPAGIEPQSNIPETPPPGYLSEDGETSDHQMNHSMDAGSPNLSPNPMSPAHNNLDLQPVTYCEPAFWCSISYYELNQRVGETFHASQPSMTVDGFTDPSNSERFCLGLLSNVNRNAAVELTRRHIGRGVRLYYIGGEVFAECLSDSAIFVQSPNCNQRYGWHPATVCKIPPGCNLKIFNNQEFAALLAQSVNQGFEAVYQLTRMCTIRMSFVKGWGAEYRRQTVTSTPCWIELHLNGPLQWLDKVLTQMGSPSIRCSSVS", "UniProt Q99717": "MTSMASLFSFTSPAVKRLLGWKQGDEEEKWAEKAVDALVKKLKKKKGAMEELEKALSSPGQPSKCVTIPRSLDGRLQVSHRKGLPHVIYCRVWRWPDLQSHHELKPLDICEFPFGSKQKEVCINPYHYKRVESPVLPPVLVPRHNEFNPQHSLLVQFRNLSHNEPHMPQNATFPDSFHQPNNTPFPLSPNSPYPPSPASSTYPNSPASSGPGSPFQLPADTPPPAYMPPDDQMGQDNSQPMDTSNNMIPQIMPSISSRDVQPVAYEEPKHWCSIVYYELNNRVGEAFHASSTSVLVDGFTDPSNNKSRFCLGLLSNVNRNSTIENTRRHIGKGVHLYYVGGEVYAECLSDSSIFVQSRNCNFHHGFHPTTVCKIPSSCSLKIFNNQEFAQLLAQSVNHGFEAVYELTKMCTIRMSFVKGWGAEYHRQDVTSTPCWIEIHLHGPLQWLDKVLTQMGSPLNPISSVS", "UniProt O15198": "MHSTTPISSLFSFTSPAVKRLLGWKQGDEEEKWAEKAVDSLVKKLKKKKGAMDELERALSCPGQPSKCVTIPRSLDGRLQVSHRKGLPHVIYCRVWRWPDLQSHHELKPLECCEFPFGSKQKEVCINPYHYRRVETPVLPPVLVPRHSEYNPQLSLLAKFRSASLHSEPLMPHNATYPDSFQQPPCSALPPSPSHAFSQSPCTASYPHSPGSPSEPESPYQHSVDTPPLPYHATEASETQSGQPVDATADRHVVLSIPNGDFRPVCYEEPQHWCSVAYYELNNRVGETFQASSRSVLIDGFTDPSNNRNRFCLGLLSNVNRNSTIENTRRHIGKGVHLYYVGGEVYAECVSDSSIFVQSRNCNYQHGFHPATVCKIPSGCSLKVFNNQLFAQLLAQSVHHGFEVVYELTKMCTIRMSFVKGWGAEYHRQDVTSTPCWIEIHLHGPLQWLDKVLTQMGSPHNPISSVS", "UniProt Q93009": "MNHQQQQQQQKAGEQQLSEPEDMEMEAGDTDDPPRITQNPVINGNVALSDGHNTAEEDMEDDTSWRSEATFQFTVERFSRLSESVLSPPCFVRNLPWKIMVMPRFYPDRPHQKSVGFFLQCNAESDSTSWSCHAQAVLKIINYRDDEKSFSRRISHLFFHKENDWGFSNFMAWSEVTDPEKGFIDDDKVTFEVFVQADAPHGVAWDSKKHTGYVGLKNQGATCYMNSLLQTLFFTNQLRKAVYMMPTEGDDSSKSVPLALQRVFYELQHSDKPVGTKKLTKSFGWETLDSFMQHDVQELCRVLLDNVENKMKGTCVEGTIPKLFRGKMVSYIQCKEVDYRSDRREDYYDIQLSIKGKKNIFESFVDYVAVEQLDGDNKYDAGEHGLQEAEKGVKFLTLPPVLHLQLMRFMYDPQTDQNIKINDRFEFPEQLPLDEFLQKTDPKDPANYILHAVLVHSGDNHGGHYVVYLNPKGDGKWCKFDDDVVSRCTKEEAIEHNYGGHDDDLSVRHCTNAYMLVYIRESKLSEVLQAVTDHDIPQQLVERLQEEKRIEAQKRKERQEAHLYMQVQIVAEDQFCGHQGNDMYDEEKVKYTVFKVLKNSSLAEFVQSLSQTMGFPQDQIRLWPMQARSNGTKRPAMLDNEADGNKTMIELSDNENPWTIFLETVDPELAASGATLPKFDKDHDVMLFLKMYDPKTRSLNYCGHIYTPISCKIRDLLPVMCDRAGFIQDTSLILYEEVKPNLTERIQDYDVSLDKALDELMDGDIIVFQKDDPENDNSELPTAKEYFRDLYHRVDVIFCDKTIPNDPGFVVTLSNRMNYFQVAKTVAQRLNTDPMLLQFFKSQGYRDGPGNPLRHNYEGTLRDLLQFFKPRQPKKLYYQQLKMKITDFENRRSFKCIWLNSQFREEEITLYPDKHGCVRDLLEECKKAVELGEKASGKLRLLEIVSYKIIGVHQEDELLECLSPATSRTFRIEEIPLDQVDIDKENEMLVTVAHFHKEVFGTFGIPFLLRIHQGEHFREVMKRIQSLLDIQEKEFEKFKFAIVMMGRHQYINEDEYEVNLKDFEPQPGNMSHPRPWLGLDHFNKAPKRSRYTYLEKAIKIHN", "UniProt Q93008": "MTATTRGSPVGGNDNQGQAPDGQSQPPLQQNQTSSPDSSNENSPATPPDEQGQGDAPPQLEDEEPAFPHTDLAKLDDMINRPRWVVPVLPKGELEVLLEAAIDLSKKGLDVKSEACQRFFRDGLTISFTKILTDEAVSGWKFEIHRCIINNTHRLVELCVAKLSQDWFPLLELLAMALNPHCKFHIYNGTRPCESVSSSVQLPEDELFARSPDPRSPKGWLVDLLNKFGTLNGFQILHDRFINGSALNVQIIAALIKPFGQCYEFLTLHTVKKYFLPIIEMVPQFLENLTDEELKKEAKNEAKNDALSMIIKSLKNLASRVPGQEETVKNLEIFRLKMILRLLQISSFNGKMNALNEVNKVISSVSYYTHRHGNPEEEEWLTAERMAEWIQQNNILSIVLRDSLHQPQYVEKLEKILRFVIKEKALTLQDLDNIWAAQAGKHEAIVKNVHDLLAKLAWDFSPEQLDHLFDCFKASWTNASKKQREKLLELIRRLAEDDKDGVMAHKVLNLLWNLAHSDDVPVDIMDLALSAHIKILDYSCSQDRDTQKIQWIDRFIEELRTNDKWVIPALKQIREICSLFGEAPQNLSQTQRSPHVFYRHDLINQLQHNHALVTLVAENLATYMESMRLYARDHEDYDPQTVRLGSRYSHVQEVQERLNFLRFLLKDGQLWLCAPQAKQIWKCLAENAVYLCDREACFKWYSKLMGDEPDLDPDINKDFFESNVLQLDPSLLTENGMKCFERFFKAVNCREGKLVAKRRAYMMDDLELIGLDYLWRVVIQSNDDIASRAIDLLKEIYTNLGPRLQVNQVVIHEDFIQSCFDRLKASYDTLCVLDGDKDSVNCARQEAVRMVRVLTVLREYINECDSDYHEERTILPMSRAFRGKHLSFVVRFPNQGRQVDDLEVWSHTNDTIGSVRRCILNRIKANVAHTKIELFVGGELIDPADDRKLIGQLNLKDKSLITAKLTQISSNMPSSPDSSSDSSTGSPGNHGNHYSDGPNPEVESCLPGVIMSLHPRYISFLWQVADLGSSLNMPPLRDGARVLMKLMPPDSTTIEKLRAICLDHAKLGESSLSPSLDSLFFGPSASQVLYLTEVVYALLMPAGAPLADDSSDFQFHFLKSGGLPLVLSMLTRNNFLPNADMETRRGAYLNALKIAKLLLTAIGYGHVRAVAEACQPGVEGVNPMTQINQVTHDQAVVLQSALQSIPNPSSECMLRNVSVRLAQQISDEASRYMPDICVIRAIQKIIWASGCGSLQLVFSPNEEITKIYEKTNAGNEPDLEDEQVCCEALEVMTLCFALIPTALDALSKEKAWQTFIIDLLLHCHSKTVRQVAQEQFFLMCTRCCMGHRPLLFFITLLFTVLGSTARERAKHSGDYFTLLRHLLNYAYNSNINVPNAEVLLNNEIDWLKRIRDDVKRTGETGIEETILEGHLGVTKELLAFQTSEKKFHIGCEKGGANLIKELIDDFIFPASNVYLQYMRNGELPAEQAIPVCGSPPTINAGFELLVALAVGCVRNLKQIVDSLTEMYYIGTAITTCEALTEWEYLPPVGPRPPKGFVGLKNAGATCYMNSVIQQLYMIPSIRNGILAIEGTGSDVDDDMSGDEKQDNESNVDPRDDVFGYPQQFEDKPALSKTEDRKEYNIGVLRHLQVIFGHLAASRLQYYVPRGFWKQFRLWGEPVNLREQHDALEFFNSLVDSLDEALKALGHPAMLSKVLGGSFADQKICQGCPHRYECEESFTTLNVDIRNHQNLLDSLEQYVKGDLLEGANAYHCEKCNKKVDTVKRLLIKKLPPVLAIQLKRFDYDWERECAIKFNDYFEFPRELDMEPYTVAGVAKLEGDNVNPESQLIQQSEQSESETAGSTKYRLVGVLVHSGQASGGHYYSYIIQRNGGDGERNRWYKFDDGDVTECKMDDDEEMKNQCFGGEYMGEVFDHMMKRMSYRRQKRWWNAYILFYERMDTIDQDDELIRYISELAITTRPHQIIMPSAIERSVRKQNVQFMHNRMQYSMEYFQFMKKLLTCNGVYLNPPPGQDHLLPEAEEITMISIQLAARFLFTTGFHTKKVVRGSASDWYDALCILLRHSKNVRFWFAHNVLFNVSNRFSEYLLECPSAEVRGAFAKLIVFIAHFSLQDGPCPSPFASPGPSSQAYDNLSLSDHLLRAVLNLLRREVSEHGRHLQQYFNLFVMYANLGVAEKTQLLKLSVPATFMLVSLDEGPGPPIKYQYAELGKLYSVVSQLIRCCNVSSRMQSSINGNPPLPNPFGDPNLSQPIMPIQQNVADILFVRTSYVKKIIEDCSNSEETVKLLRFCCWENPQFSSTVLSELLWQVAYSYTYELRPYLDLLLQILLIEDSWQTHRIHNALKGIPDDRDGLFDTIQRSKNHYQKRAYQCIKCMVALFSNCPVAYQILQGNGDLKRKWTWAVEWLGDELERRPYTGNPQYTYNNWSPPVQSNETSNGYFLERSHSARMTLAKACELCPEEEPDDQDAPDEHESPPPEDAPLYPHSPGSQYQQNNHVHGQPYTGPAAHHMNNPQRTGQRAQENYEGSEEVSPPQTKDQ"},
  "source": "paper doi:10.1101/458190",
  "assay_in_all_cases": "affinity purification with mass spectrometry",
  "key": {"[1]": {"molecular_target": "Halo-SMAD4 Y353F & Y412F (human) (UniProt Q13485)"}, "[2]": {"molecular_target": "Halo-SMAD4 phosphorylated by BRK-YF (human) (UniProt Q13485)"}, "SNAP-Flag-BRK-WT (human)": {"molecular_target": "SNAP-Flag-BRK-WT (human) (UniProt Q13882)"}, "Halo-SMAD4 (human)": {"molecular_target": "Halo-SMAD4 (human) (UniProt Q13485)"}},
  "note": "These are yes or no findings as the source states them, for the method shown. Binding seen in cells or lysates may run through a third protein. Here binding means that the protein was enriched with, or labelled near, the bait; the list need not be complete. For some assays here: A no says only that the protein was not detected with the bait.",
  "data": [
    {"substance": "FOXK2 (from UniProt Q01167 1-660)", "values": [
      {"measurement": "binding", "setting": "[1]", "value": "no binding"}
    ]},
    {"substance": "HDAC2 (from UniProt Q92769 1-488) (enzyme)", "values": [
      {"measurement": "binding", "setting": "[2]", "value": "binds"}
    ]},
    {"substance": "HERC2 (from UniProt O95714 1-4834) (enzyme)", "values": [
      {"measurement": "binding", "setting": "[2]", "value": "binds"},
      {"measurement": "binding", "setting": "[1]", "value": "no binding"}
    ]},
    {"substance": "Halo-SMAD4 (from UniProt Q13485 1-552)", "values": [
      {"measurement": "binding", "setting": "SNAP-Flag-BRK-WT (human)", "value": "binds"}
    ]},
    {"substance": "MAX (from UniProt P61244 1-160)", "values": [
      {"measurement": "binding", "setting": "[1]", "value": "no binding"}
    ]},
    {"substance": "SMAD1 (from UniProt Q15797 1-465)", "values": [
      {"measurement": "binding", "setting": "[2]", "value": "binds"},
      {"measurement": "binding", "setting": "Halo-SMAD4 (human)", "value": "binds"},
      {"measurement": "binding", "setting": "[1]", "value": "binds"}
    ]},
    {"substance": "SMAD3 (from UniProt P84022 1-425)", "values": [
      {"measurement": "binding", "setting": "[1]", "value": "no binding"}
    ]},
    {"substance": "SMAD5 (from UniProt Q99717 1-465)", "values": [
      {"measurement": "binding", "setting": "[2]", "value": "binds"},
      {"measurement": "binding", "setting": "Halo-SMAD4 (human)", "value": "binds"},
      {"measurement": "binding", "setting": "[1]", "value": "binds"}
    ]},
    {"substance": "SMAD8/9 (from UniProt O15198 1-467)", "values": [
      {"measurement": "binding", "setting": "[2]", "value": "binds"},
      {"measurement": "binding", "setting": "Halo-SMAD4 (human)", "value": "binds"},
      {"measurement": "binding", "setting": "[1]", "value": "binds"}
    ]},
    {"substance": "SNAP-Flag-BRK-WT (from UniProt Q13882 1-451) (enzyme)", "values": [
      {"measurement": "binding", "setting": "Halo-SMAD4 (human)", "value": "binds"}
    ]},
    {"substance": "USP7 (from UniProt Q93009 1-1102) (enzyme)", "values": [
      {"measurement": "binding", "setting": "[2]", "value": "binds"},
      {"measurement": "binding", "setting": "Halo-SMAD4 (human)", "value": "binds"},
      {"measurement": "binding", "setting": "[1]", "value": "binds"}
    ]},
    {"substance": "USP9X (from UniProt Q93008 1-2554) (enzyme)", "values": [
      {"measurement": "binding", "setting": "[2]", "value": "binds"},
      {"measurement": "binding", "setting": "Halo-SMAD4 (human)", "value": "binds"},
      {"measurement": "binding", "setting": "[1]", "value": "binds"}
    ]}
  ]
}
